Data as given in PubChem BioAssay AID1671190 (National Center for Advancing Translational Sciences (NCATS), 2021).
Hit rate of the full screen: of about 580,000 compounds, about 6,100 (1.1%) were called active. Inconclusive means that the source gave no clear call. Such entries were picked first, then a sample of the others. Calls come from the whole dose curve; as a rule, active = well fitted inhibition curve with a large enough effect; inconclusive = small, poorly fitted or top-dose-only effect, or another doubt; inactive = no such curve, though single readings can be large or run the other way. Where the call is inconclusive, the potency comes from a doubtful curve fit.

By UniProt entry, the sequences of proteins in these tests, tags left out. Where a name states a change or a piece, a line headed by the entry shows the natural chain unless it says otherwise.
UniProt P18054: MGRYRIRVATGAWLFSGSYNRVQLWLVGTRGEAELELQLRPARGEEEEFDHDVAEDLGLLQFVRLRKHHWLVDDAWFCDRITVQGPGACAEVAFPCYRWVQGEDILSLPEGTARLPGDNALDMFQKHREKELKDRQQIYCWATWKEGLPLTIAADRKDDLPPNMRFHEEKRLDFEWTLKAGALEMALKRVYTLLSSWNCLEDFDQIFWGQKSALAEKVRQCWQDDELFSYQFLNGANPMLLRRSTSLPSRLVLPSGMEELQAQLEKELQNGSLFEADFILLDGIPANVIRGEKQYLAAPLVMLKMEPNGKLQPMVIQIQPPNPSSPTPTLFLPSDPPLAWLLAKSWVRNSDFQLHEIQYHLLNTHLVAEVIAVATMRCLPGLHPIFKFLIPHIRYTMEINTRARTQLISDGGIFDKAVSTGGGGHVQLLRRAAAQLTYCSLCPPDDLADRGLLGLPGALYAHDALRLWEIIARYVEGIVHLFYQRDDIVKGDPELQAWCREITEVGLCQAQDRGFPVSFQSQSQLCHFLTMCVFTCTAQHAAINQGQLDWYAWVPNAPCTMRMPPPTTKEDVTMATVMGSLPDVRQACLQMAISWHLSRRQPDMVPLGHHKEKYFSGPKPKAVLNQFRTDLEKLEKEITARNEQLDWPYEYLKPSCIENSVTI

The compounds below were run against Polyunsaturated fatty acid lipoxygenase ALOX12 (Homo sapiens) (UniProt P18054) (assay: Primary qHTS assay for inhibitors of human arachidonate 12S-lipoxygenase (ALOX12): Round 2). Details: purified 12hLO, xylenol orange hydroperoxide absorbance; series mostly up to 108 µM.
Summary of the method: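 Purified human 12hLO at 150 nM in 25 mM Hepes, 0.01% Triton X-100, pH 7.0, preincubated 15 min at room temperature with compound. Reaction started with 40 uM arachidonic acid, 30 min at room temperature. Hydroperoxide measured by Fe-xylenol orange, 573/405 nm absorbance ratio.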
Potency is the fitted concentration of half-maximal effect.

Row | Structure (SMILES) | Potency
1 | Cc1nncn1C1CCN(S(=O)(=O)c2ccc(Cl)cc2)CC1 | inconclusive: 56.2 µM [inhibitor, partial curve, poor fit]
2 | Cc1ccc(CNC(=O)NCC(=O)Nc2cccc(C(F)(F)F)c2)cc1 | inactive
3 | Cn1c2nc3ccccc3c-2nc2ccccc21 | inconclusive: 39.8 µM [inhibitor, single point]
4 | O=C(O)CCc1ccc(-c2cccs2)n1Cc1ccco1 | inconclusive: 39.8 µM [inhibitor, partial curve, poor fit]
5 | O=P(CCCO)(Cc1ccccc1)Cc1ccccc1 | inconclusive: 126 µM [inhibitor, single point]
6 | CCCCCCSC1=C(C#N)C(c2ccc(C)o2)CC(=O)N1 (configuration not stated) | inconclusive: 31.6 µM [inhibitor, full curve, poor fit]
7 | CCOC(=O)c1c(NC(C)=O)sc2c1C1CCN2CC1 | inconclusive: 70.8 µM [inhibitor, partial curve, poor fit]
8 | CCOc1ccc(CCNS(=O)(=O)c2ccc3c(c2)oc(=O)n3C)cc1OCC | inactive
9 | O=C(Nc1ccnn1C1CCN(Cc2ccc(-c3ccccc3)cc2)CC1)C1CC1 | inconclusive: 10 µM [inhibitor, full curve]
10 | CC(C)N(C)c1ncnc2c1ncn2[C@H]1CN(Cc2ccc(Cl)cc2)C[C@@H](CO)O1 | inconclusive: 89.1 µM [inhibitor, single point]
11 | Cc1nn2c(c1-c1cccnc1N1CCOCC1)N(C(=O)Cc1ccc(Cl)cc1)CCC2 | inconclusive: 31.6 µM [inhibitor, partial curve]
12 | CN(C)c1ccc(NC(=O)CN2CCN(CC(=O)Nc3ccc(Br)cc3)CC2)cc1 | inactive
13 | Fc1ccc(/C=N/n2c(COc3ccccc3)n[nH]c2=S)cc1 | inconclusive: 35.5 µM [inhibitor, partial curve, poor fit]
14 | CCNC(=S)NCc1ccc(OC)c(OC)c1 | inactive
15 | COc1ccccc1NC(=O)Cn1nc(-c2ccncc2)nc1SCC(=O)NC1CCCC1 | inactive
16 | CC(=O)Nc1ccc(NC(=O)CN2C(=O)NC3(CCC(C)CC3)C2=O)cc1 (configuration not stated) | inactive
17 | COc1ccc(NS(=O)(=O)c2cccc(C(=O)NCC(c3ccc(OC)cc3)N3CCCC3)c2)cc1 (configuration not stated) | inconclusive: 5.62 µM [inhibitor, full curve, poor fit]
18 | CCCCCC(=O)Nc1cccc(S(=O)(=O)NC2=NCCCCC2)c1 | inactive
19 | CCOC(=O)c1cnc(-c2ccccc2)nc1N1CCOCC1 | inactive
20 | Cc1ccc(CSC2=Nc3ccccc3C3=NC(CC(=O)NCc4cccs4)C(=O)N23)cc1 (configuration not stated) | inactive
21 | NC(=S)Nc1cccc2cccnc12 | inconclusive: 39.8 µM [inhibitor, partial curve, poor fit]
22 | CCN(CC)CCCN1C(=O)C(O)=C(C(=O)c2ccco2)C1c1ccc(OC(C)C)cc1 (configuration not stated) | inconclusive: 44.7 µM [inhibitor, partial curve, poor fit]
23 | CCOC(=O)CSc1n[nH]c(-c2cccnc2)n1 | inconclusive: 35.5 µM [inhibitor, partial curve, poor fit]
24 | O=C(O)C1CCc2nnc(C3CCCN(C(=O)c4cccc(Cl)c4)C3)n21 (configuration not stated) | inconclusive: 7.94 µM [inhibitor, full curve, poor fit]

Looked up one by one from above:
Row | Structure (SMILES) | Potency
23 | CCOC(=O)CSc1n[nH]c(-c2cccnc2)n1 | inconclusive: 35.5 µM [inhibitor, partial curve, poor fit]
15 | COc1ccccc1NC(=O)Cn1nc(-c2ccncc2)nc1SCC(=O)NC1CCCC1 | inactive
17 | COc1ccc(NS(=O)(=O)c2cccc(C(=O)NCC(c3ccc(OC)cc3)N3CCCC3)c2)cc1 (configuration not stated) | inconclusive: 5.62 µM [inhibitor, full curve, poor fit]
19 | CCOC(=O)c1cnc(-c2ccccc2)nc1N1CCOCC1 | inactive

Later entries

Row | Structure (SMILES) | Potency
25 | COCCNC(=O)CSCc1cc(C)cc(C)c1 | inactive
26 | O=C(NCc1ccco1)c1ccc(C(=O)NCc2ccco2)cc1 | inconclusive: 39.8 µM [inhibitor, partial curve, poor fit]
27 | Cc1nc(-c2ccc(NC(=O)c3ccc(Br)o3)c(C)c2)no1 | inactive
28 | O=C(O)c1cccc(Nc2nc3ccccc3nc2NS(=O)(=O)c2ccc(Br)cc2)c1 | active: 12.6 µM
29 | CCOc1ccc(-n2nc(CO)c(C(=O)NCc3ccc4c(c3)OCO4)n2)cc1 | inactive
30 | COCOc1cc(O)c(C(=O)/C=C/c2ccccc2)c(OCOC)c1 | inactive
31 | COc1cc(NC(=S)NC(C)(C)C)c(OC)cc1Cl | inconclusive: 44.7 µM [inhibitor, partial curve, poor fit]
32 | CCOc1ccc(/C=C/c2nc(C#N)c(Nc3ccc(OCC)cc3)o2)cc1 | inactive
33 | NC(=O)c1nn(-c2ccccc2)c(=O)cc1O | inconclusive: 39.8 µM [inhibitor, partial curve, poor fit]
34 | COc1ccc(/C=N/S(=O)(=O)c2ccc(C)cc2)cc1 | inactive
35 | CCc1ccc(C2CC(=O)NC(NC(=O)c3ccc(C(C)(C)C)cc3)=N2)cc1 (configuration not stated) | inactive
36 | Cc1c(-c2ccccc2)c(=O)oc2c(CN3CCCC3)c(O)ccc12 | inactive
37 | COc1ccc(NC(=O)CSc2nc(N3CCOCC3)c3c(c2C#N)CCCC3)cc1 | inactive
38 | CCN1c2cc(C(=O)NCc3ccc(F)cc3Cl)ccc2C(=O)N2CCCCC21 (configuration not stated) | inconclusive: 44.7 µM [inhibitor, partial curve, poor fit]
39 | COc1ccc(OCC2(C)COc3ccc(C(=O)NCc4cccnc4)cc3N2)cc1 (configuration not stated) | inactive
40 | O=C(N[C@H]1CC[C@@]23CCCN2C(=O)CCC[C@H]3[C@H]1Cc1ccccc1)c1cccnc1 | inconclusive: 141 µM [inhibitor, single point]
41 | O=C(Nc1ccc(F)c(Cl)c1)c1nn(Cc2ccccc2)c(=O)c2ccccc12 | inconclusive: 39.8 µM [inhibitor, single point]
42 | C=CC(=O)Nc1cccc(Oc2ncnc3[nH]cc(-c4cnc5ccccc5c4)c23)c1 | inactive
43 | COc1ccc(CCNCC(O)COc2c(C)cccc2C)cc1OC (configuration not stated) | inconclusive: 2 µM [inhibitor, partial curve, poor fit]
44 | CC1(C)CC(NC(=O)COc2ccc(Cl)cc2Cl)CC(C)(C)N1 | inactive
45 | CC(=O)N1c2ccc(S(=O)(=O)N3CCCCC3)cc2CC1C(=O)Nc1ccc(F)cc1C (configuration not stated) | inactive
46 | CN(C)CCCNCC(=O)Nc1ccccc1N1CCOCC1 | inconclusive: 0.316 µM [inhibitor, full curve, poor fit]
47 | COc1ccc(/C=C2\CCc3ccccc3C2=O)c(OC)c1OC | inconclusive: 3.98 µM [inhibitor, full curve, poor fit]
